Experimental data published in the supplement of paper PMC5393889.
Some of the results follow.

test system: Caenorhabditis elegans N2; experiment: aldicarb interaction hit call (worm growth perturbed in combination with 10 uM aldicarb in both replicates, no effect as single agent) (binary (1 = interacts)); higher = interacts with aldicarb (growth perturbed); conditions: first compound 1.5 µM; aldicarb concentration 10 µM; 6 days; 20 °C

| SMILES | aldicarb interaction hit call |
| --- | --- |
| Cc1nc2cc(Br)c(Br)cc2n1-c1ccccc1 [wact-388] + CNC(=O)O/N=C/C(C)(C)SC [aldicarb] | inactive: 0 |
| Cc1ccccc1Nc1nc(-c2ccncc2)cs1 [wact-547] + CNC(=O)O/N=C/C(C)(C)SC [aldicarb] | inactive: 0 |
| CN(CC(O)COc1cccc(CNCCc2ccc(F)cc2)c1)C1CCCCC1 (configuration not stated) [wact-236] + CNC(=O)O/N=C/C(C)(C)SC [aldicarb] | inactive: 0 |
| CC(C(=O)N1CCCc2ccccc21)c1ccc([N+](=O)[O-])cc1 (configuration not stated) [wact-511] + CNC(=O)O/N=C/C(C)(C)SC [aldicarb] | inactive: 0 |
| COc1ccc(-c2n[nH]cc2CNC(C)c2ccc(Cl)cc2)c(F)c1 (configuration not stated) [wact-255] + CNC(=O)O/N=C/C(C)(C)SC [aldicarb] | inactive: 0 |
| N/C(=N\OC(=O)c1cc(Br)ccc1Cl)c1ccccn1 [wact-540] + CNC(=O)O/N=C/C(C)(C)SC [aldicarb] | inactive: 0 |
| CCSc1ncnc2c1cnn2-c1ccccc1 [wact-142] + CNC(=O)O/N=C/C(C)(C)SC [aldicarb] | inactive: 0 |
| c1ccc(CCn2nnc3ccccc32)cc1 [wact-515] + CNC(=O)O/N=C/C(C)(C)SC [aldicarb] | inactive: 0 |
| O=C(c1ccc2oc(CCCc3ccccc3)nc2c1)N1CCC(c2ccncc2)CC1 [wact-311] + CNC(=O)O/N=C/C(C)(C)SC [aldicarb] | inactive: 0 |
| CCCC(=O)c1ccc(N2CCC(C)CC2)c(F)c1 [wact-447] + CNC(=O)O/N=C/C(C)(C)SC [aldicarb] | inactive: 0 |
| C=C(C)Cn1c(N2CCN(c3cccc(Cl)c3)CC2)nc2c1c(=O)[nH]c(=O)n2C [wact-138] + CNC(=O)O/N=C/C(C)(C)SC [aldicarb] | inactive: 0 |
| Brc1ccc(-c2nnc(-c3ccccc3)o2)cc1 [wact-425] + CNC(=O)O/N=C/C(C)(C)SC [aldicarb] | active: 1 |

Two entries picked at random from those above, as already listed:

| SMILES | aldicarb interaction hit call |
| --- | --- |
| c1ccc(CCn2nnc3ccccc32)cc1 [wact-515] + CNC(=O)O/N=C/C(C)(C)SC [aldicarb] | inactive: 0 |
| CN(CC(O)COc1cccc(CNCCc2ccc(F)cc2)c1)C1CCCCC1 (configuration not stated) [wact-236] + CNC(=O)O/N=C/C(C)(C)SC [aldicarb] | inactive: 0 |
